Data on 20 compounds can be found in PubChem BioAssay AID220 (DTP/NCI, 2004).

The list is a part of this screen's results and no random one: it gathers tests that were run many times, whatever their T/C, doses with no T/C, and many T/C values between a quarter and a half above the control. Other doses and runs of a compound stand elsewhere. T/C gives the treated animals as a percentage of the vehicle group. Schedule codes are those of the source, taken here to give the interval after Q, in days (D) or hours (H), and the number of doses after X. Some T/C values are followed by the survivors on the day toxicity was checked, most often the fifth; where none is given, no animal had died by that day. Some entries give survivors of the animals treated and no T/C: the source holds a T/C of zero for them, seemingly a mark for toxic or unscored doses. Survivors were counted at the toxicity check, usually on the fifth day, unless a day is given; later deaths do not show. Some doses were run more than once; the results are listed from low to high.

The test system of the experiment is CD8F1 mice, subcutaneous mammary adenocarcinoma, T/C%. Put plainly: NCI In Vivo Anticancer Drug Screen. Data for tumor model Mammary Adenocarcinoma CD8F1 (subcutaneous) in CD8F1. The following applies: higher T/C = larger tumour. The procedure, abridged: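 Tumor-bearing mice, transplantable model; readout survival or tumor size; value = treated (T) / vehicle control (C).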

Where [1] appears, read: T/C endpoint: median tumor weight (est.), dose: 50.0 mg/kg/injection, schedule: Q07DX005 (ip), vehicle: Klucel (hydroxypropylcellulose) (HPC), evaluated on day 30.
Setting [2] is: T/C endpoint: median tumor weight change, dose: 1000.0 mg/kg/injection, schedule: Q01DX001 (ip), vehicle: saline with Tween-80.
[3] abbreviates: T/C endpoint: median tumor weight change, dose: 2000.0 mg/kg/injection, schedule: Q01DX001 (ip), vehicle: saline with Tween-80.

Turning to `Cc1cc2c(c3oc(C4(C)OC4C4OC4C)cc(=O)c13)C(=O)c1c(O)c(C3CC(C)(N(C)C)C(O)C(C)O3)cc(C3CC(N(C)C)C(O)C(C)O3)c1C2=O` (stereo unspecified), the survivor count is reported as 0 of 10 on day 30 (T/C endpoint: median tumor weight (est.), dose: 0.47 mg/kg/injection, schedule: Q07DX005 (ip), vehicle: Klucel (hydroxypropylcellulose) (HPC)); 0 of 10 on day 30 (T/C endpoint: median tumor weight (est.), dose: 0.94 mg/kg/injection, schedule: Q07DX005 (ip), vehicle: Klucel (hydroxypropylcellulose) (HPC)); 0 of 10 on day 30 (T/C endpoint: median tumor weight (est.), dose: 1.88 mg/kg/injection, schedule: Q07DX005 (ip), vehicle: Klucel (hydroxypropylcellulose) (HPC)); 0 of 10 on day 30 (T/C endpoint: median tumor weight (est.), dose: 3.75 mg/kg/injection, schedule: Q07DX005 (ip), vehicle: Klucel (hydroxypropylcellulose) (HPC)); 0 of 10 on day 30 (T/C endpoint: median tumor weight (est.), dose: 7.5 mg/kg/injection, schedule: Q07DX005 (ip), vehicle: Klucel (hydroxypropylcellulose) (HPC)); 1 of 10 on day 30 (T/C endpoint: median tumor weight (est.), dose: 0.94 micrograms/kg/injection, schedule: Q07DX005 (ip), vehicle: water). Also, the survivor count (T/C endpoint: median tumor weight (est.), dose: 1.88 micrograms/kg/injection, schedule: Q07DX005 (ip), vehicle: water) was 2 of 10 on day 30; the survivor count (T/C endpoint: median tumor weight (est.), dose: 3.75 micrograms/kg/injection, schedule: Q07DX005 (ip), vehicle: water) is on record as 2 of 10 on day 30; the survivor count (T/C endpoint: median tumor weight (est.), dose: 7.5 micrograms/kg/injection, schedule: Q07DX005 (ip), vehicle: water) is recorded as 3 of 10 on day 30; the survivor count (T/C endpoint: median tumor weight (est.), dose: 15.0 micrograms/kg/injection, schedule: Q07DX005 (ip), vehicle: water) is listed as 0 of 10 on day 30.
In the case of `Nc1ncnc2c1ncn2C1OC(CO)CC1O` (stereo unspecified), for the setting “T/C endpoint: median tumor weight (est.), dose: 150.0 mg/kg/injection, schedule: Q07DX005 (ip), vehicle: Klucel (hydroxypropylcellulose) (HPC), evaluated on day 30”, the T/C is 125 % of control [9 of 10 alive on day 30]. In addition, the survivor count (T/C endpoint: median tumor weight (est.), dose: 300.0 mg/kg/injection, schedule: Q07DX005 (ip), vehicle: Klucel (hydroxypropylcellulose) (HPC)) is 3 of 10 on day 30.
Regarding `CN(C)N=Nc1ccccc1`, the T/C (T/C endpoint: median tumor weight (est.), dose: 12.5 mg/kg/injection, schedule: Q07DX005 (ip), vehicle: Klucel (hydroxypropylcellulose) (HPC), evaluated on day 30) is 138 % of control and the T/C (T/C endpoint: median tumor weight (est.), dose: 25.0 mg/kg/injection, schedule: Q07DX005 (ip), vehicle: Klucel (hydroxypropylcellulose) (HPC), evaluated on day 34) was 131 % of control. The survivor count (T/C endpoint: median tumor weight (est.), dose: 12.5 mg/kg/injection, schedule: Q07DX005 (ip), vehicle: Klucel (hydroxypropylcellulose) (HPC)) is 2 of 10.
`CC(=O)Oc1[nH]c(=O)c2cccc3c2c1CCC3`: where the note is “T/C endpoint: median tumor weight change, dose: 900.0 mg/kg/injection, schedule: Q01DX001 (ip), vehicle: saline with Tween-80, evaluated on day 32”, the T/C was 128 % of control. For the same compound, under “T/C endpoint: median tumor weight change, dose: 3600.0 mg/kg/injection, schedule: Q01DX001 (ip), vehicle: saline with Tween-80”, the survivor count was 6 of 10 on day 32.
`Cn1cnc([N+](=O)[O-])c1SCC(=O)O`: under setting [1], the T/C is 139 % of control.
On to `N#CCCSC(=S)C1CCCC1=N` (stereo unspecified), for which the T/C by setting is: (T/C endpoint: median tumor weight change, dose: 62.5 mg/kg/injection, schedule: Q01DX001 (ip), vehicle: saline with Tween-80, evaluated on day 26) 148 % of control; (T/C endpoint: median tumor weight change, dose: 125.0 mg/kg/injection, schedule: Q01DX001 (ip), vehicle: saline with Tween-80, evaluated on day 26) 143 % of control; (T/C endpoint: median tumor weight change, dose: 250.0 mg/kg/injection, schedule: Q01DX001 (ip), vehicle: saline with Tween-80, evaluated on day 35) 135 % of control. Besides, the survivor count is 0 of 10 on day 35 and 6 of 10 on day 26 under setting [2]; 0 of 10 on day 35 and 2 of 10 on day 26 under setting [3].
For `CC(CN1CC(=O)NC(=O)C1)N1CC(=O)NC(=O)C1` (stereo unspecified), under “T/C endpoint: median tumor weight (est.), dose: 800.0 mg/kg/injection, schedule: Q07DX005 (ip), vehicle: Klucel (hydroxypropylcellulose) (HPC)”, the survivor count is 0 of 10 on day 30.
With `Cc1ccc(S(=O)(=O)NC(=O)OC23COCN2COC3)cc1`, the T/C reads like this: (T/C endpoint: median tumor weight change, dose: 250.0 mg/kg/injection, schedule: Q01DX001 (ip), vehicle: water, evaluated on day 28) 145 % of control; (T/C endpoint: median tumor weight change, dose: 1000.0 mg/kg/injection, schedule: Q01DX001 (ip), vehicle: saline with Tween-80, evaluated on day 28) 129 % of control.
Turning to `O=c1c(O)c(-c2cc(O)c(O)c(O)c2)oc2cc(O)cc(O)c12`, the survivor count by setting is: under setting [2], 6 of 10 on day 29; under setting [3], 0 of 10 on day 29.
`O=NN(CCCl)C(=O)NC1CCCCC1`: the T/C (T/C endpoint: mean tumor weight, dose: 12.5 mg/kg/injection, schedule: Q07DX006 (ip), vehicle: saline, evaluated on day 38) is 133 % of control [9 of 10 alive]. The survivor count reads like this: (T/C endpoint: median tumor weight change, dose: 64.0 mg/kg/injection, schedule: Q01DX001 (ip), vehicle: Klucel (hydroxypropylcellulose) (HPC)) 2 of 10 on day 28; (T/C endpoint: median tumor weight change, dose: 80.0 mg/kg/injection, schedule: Q01DX001 (ip), vehicle: Klucel (hydroxypropylcellulose) (HPC)) 2 of 10 on day 33; (T/C endpoint: median tumor weight change, dose: 120.0 mg/kg/injection, schedule: Q01DX001 (ip), vehicle: Klucel (hydroxypropylcellulose) (HPC)) 4 of 9 on day 35; (T/C endpoint: median tumor weight change, dose: 160.0 mg/kg/injection, schedule: Q01DX001 (ip), vehicle: Klucel (hydroxypropylcellulose) (HPC)) 1 of 10 on day 29 and 3 of 10 on day 33.
Take `CC(/C=C/c1ccccc1)=Nc1ccccc1`: the survivor count was 1 of 10 on day 28 under setting [2] and 1 of 10 on day 28 under setting [3].
On to `CC(C)(C)C1CCCCC1`, for which the T/C under setting [1] was 128 % of control.
As to `CC1=C(/C=C/C(C)=C/C=C/C(C)=C/CO)C(C)(C)CCC1`, the T/C (T/C endpoint: median tumor weight (est.), dose: 32.0 mg/kg/injection, schedule: Q07DX005 (ip), vehicle: saline with Tween-80, evaluated on day 30) was 134 % of control.
As to `COc1ccc2[nH]c3ccc4cc[n+](CCN5CCC(C6CCN(CC[n+]7ccc8ccc9[nH]c%10ccc(OC)cc%10c9c8c7)CC6)CC5)cc4c3c2c1`, the survivor count was 6 of 10 on day 27 (T/C endpoint: median tumor weight change, dose: 250.0 mg/kg/injection, schedule: Q01DX001 (ip), vehicle: Klucel (hydroxypropylcellulose) (HPC)); 0 of 10 on day 27 (T/C endpoint: median tumor weight change, dose: 500.0 mg/kg/injection, schedule: Q01DX001 (ip), vehicle: Klucel (hydroxypropylcellulose) (HPC)); 0 of 10 on day 27 (T/C endpoint: median tumor weight change, dose: 1000.0 mg/kg/injection, schedule: Q01DX001 (ip), vehicle: Klucel (hydroxypropylcellulose) (HPC)).
As for `N#CC(=C1SCS1)[N+](=O)[O-]`, for the setting “T/C endpoint: median tumor weight change, dose: 3.75 mg/kg/injection, schedule: Q01DX001 (ip), vehicle: saline with Tween-80, evaluated on day 35”, the T/C is 148 % of control.
Take `C=C1C(C)C2C(Cc3ccccc3)NC(=O)C23C(OC(C)=O)/C=C/C(C)(O)CC(C)C/C=C/C3C1O` (stereo unspecified): the survivor count was 1 of 10 on day 26 and 1 of 10 on day 31 (T/C endpoint: median tumor weight change, dose: 15.0 mg/kg/injection, schedule: Q01DX001 (ip), vehicle: Klucel (hydroxypropylcellulose) (HPC)); 0 of 10 on day 26 and 0 of 10 on day 31 (T/C endpoint: median tumor weight change, dose: 30.0 mg/kg/injection, schedule: Q01DX001 (ip), vehicle: Klucel (hydroxypropylcellulose) (HPC)); 0 of 10 on day 26 and 0 of 10 on day 31 (T/C endpoint: median tumor weight change, dose: 60.0 mg/kg/injection, schedule: Q01DX001 (ip), vehicle: Klucel (hydroxypropylcellulose) (HPC)).
With `COc1ccc2c(c1[N+](=O)[O-])CC[C@@H]1[C@@H]2CC[C@]2(C)C(=O)CC[C@@H]12`, the T/C was 147 % of control (T/C endpoint: median tumor weight change, dose: 125.0 mg/kg/injection, schedule: Q01DX001 (ip), vehicle: saline with Tween-80, evaluated on day 30) and 126 % of control [8 of 10 alive on day 30] (T/C endpoint: median tumor weight change, dose: 1000.0 mg/kg/injection, schedule: Q01DX001 (ip), vehicle: saline with Tween-80, evaluated on day 30).
`O=C(CCCCCCC(=O)ON1C(=O)CCC1=O)ON1C(=O)CCC1=O`: under “T/C endpoint: median tumor weight change, dose: 1500.0 mg/kg/injection, schedule: Q01DX001 (ip), vehicle: saline with Tween-80”, the survivor count was 0 of 10 on day 24.
On to `CCOC(=O)C(CC(C)C)NC(=O)C(Cc1ccc(N(CCCl)CCCl)cc1)NC(C)=O` (stereo unspecified), for which the survivor count runs as follows: (T/C endpoint: median tumor weight (est.), dose: 64.0 mg/kg/injection, schedule: Q07DX005 (ip), vehicle: saline with Tween-80) 6 of 10 on day 30; (T/C endpoint: median tumor weight (est.), dose: 128.0 mg/kg/injection, schedule: Q07DX005 (ip), vehicle: saline with Tween-80) 2 of 10 on day 30 and 4 of 10 on day 30; (T/C endpoint: median tumor weight (est.), dose: 256.0 mg/kg/injection, schedule: Q07DX005 (ip), vehicle: saline with Tween-80) 0 of 10 on day 30.
Regarding `N=C(N)SCc1cccc2c(=O)cc(-c3ccccc3)oc12`, the survivor count (T/C endpoint: median tumor weight change, dose: 2000.0 mg/kg/injection, schedule: Q01DX001 (ip), vehicle: suspension in saline) is listed as 5 of 10 on day 38.
